This assay has as its system Lewis lung carcinoma i.m., BDF1 mice, T/C %. Put plainly: NCI In Vivo Anticancer Drug Screen. Data for tumor model Lewis Lung Carcinoma (intramuscular) in B6D2F1 (BDF1) mice. Summed up: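 Antitumour activity is assessed in transplanted-tumour mice. Endpoint is survival or tumour size, normalised to vehicle-dosed controls (T/C).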
[1] abbreviates: T/C endpoint: median survival time, dose: 25.0 mg/kg/injection, schedule: Q01DX011 (ip), vehicle: saline with Tween-80, higher T/C = longer survival.
The mark [2] stands for this setting: T/C endpoint: median survival time, dose: 50.0 mg/kg/injection, schedule: Q01DX011 (ip), vehicle: saline with Tween-80, higher T/C = longer survival.
[3] abbreviates: T/C endpoint: median survival time, dose: 100.0 mg/kg/injection, schedule: Q01DX011 (ip), vehicle: saline with Tween-80, higher T/C = longer survival.
[4] abbreviates: T/C endpoint: median survival time, dose: 16.0 mg/kg/injection, schedule: Q01DX011 (ip), vehicle: saline, higher T/C = longer survival.
Where [5] appears, read: T/C endpoint: median survival time, dose: 200.0 mg/kg/injection, schedule: Q01DX011 (ip), vehicle: saline with Tween-80, higher T/C = longer survival.
The mark [6] stands for this setting: T/C endpoint: mean tumor weight (est.), dose: 100.0 mg/kg/injection, schedule: Q01DX011 (ip), vehicle: saline with Tween-80, higher T/C = larger tumour.

The list does not hold the whole screen: it is rich in T/C values a quarter to a half above the control, in often repeated tests (any T/C) and in doses without a T/C. Other doses and runs of a compound stand elsewhere. T/C gives the treated animals as a percentage of the vehicle group. Some doses have a count of surviving animals in place of a T/C: the source files T/C as zero there, which appears to mark a toxic dose or a test without result, not a measured value. Some doses without a T/C left all or most animals alive at the check, yet need not have been tolerated: the source hardly ever lists a survival T/C far under the control, and the zero likely stands for such cases as well. Survivors were counted at the toxicity check, usually on the fifth day, unless a day is given; later deaths do not show. Schedules are NCI's codes, taken here to give the interval after Q, in days (D) or hours (H), and the number of doses after X. Some entries hold several experiments; the values are given in rising order. Some schedule codes hold Z or #, which are not explained here. Brackets with × give the number of equal values in this list. Where survival is the endpoint, the PubChem record calls one and a half times the control and up active, and a quarter to a half above the control has no call in these data; cut-offs in other NCI protocols can differ. Some T/C values carry the count of animals alive at the toxicity check (mostly the fifth day); where none is given, no animal had died by that day.

Regarding `Nc1ncnc2c1ccn2C1OC(CO)C(O)C1O` (stereo not drawn), the survivor count by setting is: (T/C endpoint: median survival time, dose: 0.25 mg/kg/injection, schedule: Q01DX011 (ip), vehicle: carboxymethylcellulose (CMC), higher T/C = longer survival) 10 of 10; (T/C endpoint: median survival time, dose: 1.0 mg/kg/injection, schedule: Q01DX009 (ip), vehicle: Klucel (hydroxypropylcellulose) (HPC), higher T/C = longer survival) 10 of 10; (T/C endpoint: median survival time, dose: 1.0 mg/kg/injection, schedule: Q01DX011 (ip), vehicle: carboxymethylcellulose (CMC), higher T/C = longer survival) 2 of 10 and 10 of 10; (T/C endpoint: median survival time, dose: 1.5 mg/kg/injection, schedule: Q01DX011 (ip), vehicle: steroid suspending solution, higher T/C = longer survival) 8 of 8; (T/C endpoint: median survival time, dose: 2.0 mg/kg/injection, schedule: Q01DX009 (ip), vehicle: Klucel (hydroxypropylcellulose) (HPC), higher T/C = longer survival) 10 of 10; (T/C endpoint: median survival time, dose: 2.0 mg/kg/injection, schedule: Q01DX011 (ip), vehicle: carboxymethylcellulose (CMC), higher T/C = longer survival) 0 of 10 and 2 of 10. Moreover, the survivor count is recorded as 10 of 10 (T/C endpoint: median survival time, dose: 4.0 mg/kg/injection, schedule: Q01DX009 (ip), vehicle: Klucel (hydroxypropylcellulose) (HPC), higher T/C = longer survival); 0 of 10 (T/C endpoint: median survival time, dose: 4.0 mg/kg/injection, schedule: Q01DX011 (ip), vehicle: carboxymethylcellulose (CMC), higher T/C = longer survival); 6 of 10 (T/C endpoint: median survival time, dose: 8.0 mg/kg/injection, schedule: Q01DX009 (ip), vehicle: Klucel (hydroxypropylcellulose) (HPC), higher T/C = longer survival); 0 of 10 (T/C endpoint: median survival time, dose: 8.0 mg/kg/injection, schedule: Q01DX011 (ip), vehicle: carboxymethylcellulose (CMC), higher T/C = longer survival); 1 of 10 (T/C endpoint: median survival time, dose: 16.0 mg/kg/injection, schedule: Q01DX009 (ip), vehicle: Klucel (hydroxypropylcellulose) (HPC), higher T/C = longer survival); 0 of 10 (T/C endpoint: median survival time, dose: 16.0 mg/kg/injection, schedule: Q01DX011 (ip), vehicle: carboxymethylcellulose (CMC), higher T/C = longer survival). Also, under “T/C endpoint: median tumor weight (est.), dose: 1.5 mg/kg/injection, schedule: Q01DX011 (ip), vehicle: steroid suspending solution, higher T/C = larger tumour”, the survivor count is given as 1 of 8.

With `COc1ccc2c(Nc3ccc(NS(C)(=O)=O)cc3)c3ccccc3nc2c1`, the survivor count reads like this: under setting [1], 0 of 8; under setting [2], 0 of 8; under setting [3], 0 of 8.

On to `CCCCCCCCCCCC(c1ccccc1)[N+](C)(C)C` (stereo not drawn), for which the survivor count reads like this: (T/C endpoint: mean tumor weight (est.), dose: 1.0 mg/kg/injection, schedule: Q01DX011 (ip), vehicle: saline, higher T/C = larger tumour) 5 of 8; (T/C endpoint: median survival time, dose: 1.0 mg/kg/injection, schedule: Q01DX011 (ip), vehicle: saline, higher T/C = longer survival) 5 of 8; (T/C endpoint: median survival time, dose: 8.0 mg/kg/injection, schedule: Q01DX011 (ip), vehicle: saline, higher T/C = longer survival) 0 of 8; under setting [4], 0 of 8.

Take `O=Nc1c(N=O)c(N=O)c(N=O)c(N=O)c1N=O`: the survivor count was 3 of 8 (T/C endpoint: median survival time, dose: 40.0 mg/kg/injection, schedule: Q01DX011 (ip), vehicle: saline with Tween-80, higher T/C = longer survival) and 0 of 8 (T/C endpoint: median survival time, dose: 80.0 mg/kg/injection, schedule: Q01DX011 (ip), vehicle: saline with Tween-80, higher T/C = longer survival).

Take `CCOC(=O)c1nc(C)[nH]c(=O)c1C`: where the note is “T/C endpoint: median survival time, dose: 32.0 mg/kg/injection, schedule: Q01DX009 (ip), vehicle: water, higher T/C = longer survival”, the survivor count is listed as 10 of 10.

As for `COC1N(C2CC(O)C(CO)O2)C(=O)NC(=O)C1(F)Br` (stereo not drawn), the T/C (T/C endpoint: median survival time, dose: 10.0 mg/kg/injection, schedule: Q01DX011 (ip), vehicle: saline, higher T/C = longer survival) is 128 % of control [7 of 8 alive]. In addition, the survivor count runs as follows: (T/C endpoint: median survival time, dose: 20.0 mg/kg/injection, schedule: Q01DX011 (ip), vehicle: saline, higher T/C = longer survival) 6 of 8; (T/C endpoint: median survival time, dose: 40.0 mg/kg/injection, schedule: Q01DX011 (ip), vehicle: saline, higher T/C = longer survival) 1 of 8; (T/C endpoint: median survival time, dose: 80.0 mg/kg/injection, schedule: Q01DX011 (ip), vehicle: saline, higher T/C = longer survival) 0 of 8.

Take `CC(=O)O[C@H]1[C@H]2O[C@]23[C@@H]2CC[C@@H]4C[C@@H](O)CC[C@]4(C)[C@H]2CC[C@]3(C)[C@H]1c1ccc(=O)oc1`: the survivor count reads like this: (T/C endpoint: mean tumor weight (est.), dose: 3.75 mg/kg/injection, schedule: Q01DX011 (ip), vehicle: other, higher T/C = larger tumour) 1 of 8; (T/C endpoint: mean tumor weight (est.), dose: 15.0 mg/kg/injection, schedule: Q01DX011 (ip), vehicle: other, higher T/C = larger tumour) 4 of 8; (T/C endpoint: median survival time, dose: 3.75 mg/kg/injection, schedule: Q01DX011 (ip), vehicle: other, higher T/C = longer survival) 1 of 8; (T/C endpoint: median survival time, dose: 15.0 mg/kg/injection, schedule: Q01DX011 (ip), vehicle: other, higher T/C = longer survival) 4 of 8; (T/C endpoint: median survival time, dose: 30.0 mg/kg/injection, schedule: Q01DX011 (ip), vehicle: other, higher T/C = longer survival) 0 of 8.

On to `O=C(O)CCCc1ccc(N(CCCl)CCCl)cc1`, for which the survivor count is, setting by setting: (T/C endpoint: mean tumor weight, dose: 15.0 mg/kg/injection, schedule: Q01DX011 (ip), vehicle: carboxymethylcellulose (CMC), higher T/C = larger tumour) 4 of 8; (T/C endpoint: median survival time, dose: 15.0 mg/kg/injection, schedule: Q01DX011 (ip), vehicle: carboxymethylcellulose (CMC), higher T/C = longer survival) 4 of 8; under setting [4], 4 of 10 and 7 of 10; (T/C endpoint: median survival time, dose: 32.0 mg/kg/injection, schedule: Q01DX011 (ip), vehicle: saline, higher T/C = longer survival) 0 of 10 and 3 of 10.

For the compound `C[C@]12CC[C@H]3[C@@H](CC[C@]4(O)C[C@@H](O)CC[C@]34C=O)[C@@]1(O)CC[C@@H]2C1=CC(=O)OC1`, the T/C is, setting by setting: under setting [1], 128 % of control; under setting [5], 130 % of control [6 of 8 alive]. For the same compound, under setting [3], the survivor count was 5 of 8.

On to `Nc1nc(Cl)nc2c1ncn2C1CC(O)C(CO)O1` (stereo not drawn), for which the survivor count is 8 of 8 (T/C endpoint: median survival time, dose: 16.0 mg/kg/injection, schedule: Q01DX Z (ip), vehicle: other, higher T/C = longer survival); 6 of 8 (T/C endpoint: median survival time, dose: 32.0 mg/kg/injection, schedule: Q01DX Z (ip), vehicle: other, higher T/C = longer survival); 1 of 8 and 8 of 8 (T/C endpoint: median survival time, dose: 64.0 mg/kg/injection, schedule: Q01DX Z (ip), vehicle: other, higher T/C = longer survival); 0 of 8 and 8 of 8 (T/C endpoint: median survival time, dose: 128.0 mg/kg/injection, schedule: Q01DX Z (ip), vehicle: other, higher T/C = longer survival).

For `O=C[C@@H](CO)O[C@H](C=O)n1cnc2c(=O)[nH]cnc21`, the survivor count runs as follows: (T/C endpoint: mean tumor weight, dose: 180.0 mg/kg/injection, schedule: Q01DX011 (ip), vehicle: saline, higher T/C = larger tumour) 5 of 8; (T/C endpoint: median survival time, dose: 180.0 mg/kg/injection, schedule: Q01DX011 (ip), vehicle: saline, higher T/C = longer survival) 5 of 8; (T/C endpoint: median survival time, dose: 300.0 mg/kg/injection, schedule: Q01DX011 (ip), vehicle: saline, higher T/C = longer survival) 0 of 8 (2×). In addition, the T/C by setting is: (T/C endpoint: median survival time, dose: 37.5 mg/kg/injection, schedule: Q01DX011 (ip), vehicle: saline, higher T/C = longer survival) 132 % of control; (T/C endpoint: median survival time, dose: 150.0 mg/kg/injection, schedule: Q01DX011 (ip), vehicle: saline, higher T/C = longer survival) 143 % of control.

In the case of `Nc1cc(I)c2cccnc2c1O`, the survivor count (T/C endpoint: mean tumor weight (est.), dose: 50.0 mg/kg/injection, schedule: Q01DX011 (ip), vehicle: saline with Tween-80, higher T/C = larger tumour) is recorded as 1 of 8 and the survivor count under setting [2] is listed as 1 of 8.

For `CS(=O)(=O)c1cc(C(F)(F)F)cc([N+](=O)[O-])c1Cl`, the survivor count reads like this: under setting [6], 2 of 8; under setting [3], 2 of 8; under setting [5], 0 of 8.

Take `CC(C)S(=O)(=O)/C(Cl)=C(/Cl)C(Cl)=C(Cl)Cl`: the survivor count runs as follows: (T/C endpoint: mean tumor weight, dose: 200.0 mg/kg/injection, schedule: Q01DX011 (ip), vehicle: sodium bicarbonate, higher T/C = larger tumour) 2 of 8; (T/C endpoint: median survival time, dose: 25.0 mg/kg/injection, schedule: Q01DX011 (ip), vehicle: sodium bicarbonate, higher T/C = longer survival) 6 of 8; (T/C endpoint: median survival time, dose: 100.0 mg/kg/injection, schedule: Q01DX011 (ip), vehicle: sodium bicarbonate, higher T/C = longer survival) 6 of 8; (T/C endpoint: median survival time, dose: 200.0 mg/kg/injection, schedule: Q01DX011 (ip), vehicle: sodium bicarbonate, higher T/C = longer survival) 2 of 8.

`CCC[CH2][Sn](=[S])[CH2]CCC`: the survivor count under setting [2] is recorded as 0 of 8.

As for `CCCCn1cnc2c(N)ncnc21`, the survivor count under setting [6] was 5 of 8 and the survivor count under setting [3] is listed as 5 of 8.

`CC(C)NCC(=O)c1ccc(O)c(O)c1`: the survivor count by setting is: (T/C endpoint: mean tumor weight (est.), dose: 170.0 mg/kg/injection, schedule: Q01DX011 (ip), vehicle: saline, higher T/C = larger tumour) 2 of 8; (T/C endpoint: median survival time, dose: 170.0 mg/kg/injection, schedule: Q01DX011 (ip), vehicle: saline, higher T/C = longer survival) 2 of 8; (T/C endpoint: median survival time, dose: 340.0 mg/kg/injection, schedule: Q01DX011 (ip), vehicle: saline, higher T/C = longer survival) 0 of 8.

Source of the values: PubChem BioAssay AID272 (DTP/NCI, 2004).
